This is one part of the list.
Columns and labels:
Experiment in all cases: log2 fold change, soluble protein after heating vs DMSO (PISA); higher = thermal stabilisation; K562 lysate, 10 uM; active = over 0.2 and 3.5 SD of the protein, either way, in both replicates (recomputed)
erlotinib = compound: C#Cc1cccc(Nc2ncnc3cc(OCCOC)c(OCCOC)cc23)c1 [erlotinib]
Method in brief: (§1)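 Following dounce homogenisation of K562 pellets in PBS pH 7.4 with 1 mM MgCl2, crude extract at 1 mg/mL protein was incubated for 30 min with 10 μM compound. Aliquots were then heated for 3 min over 48°C-58°C and pooled, NP-40 was added to 0.5% at 4°C, and soluble protein was recovered as the supernatant at 21,000xg for 90 min. Channel-sum-equalised TMTpro 16plex LC-MS/MS quantified this protein. Each value, from duplicates, is a log-two fold change in thermal stability relative to solvent controls.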

By UniProt entry, the sequences of proteins in these tests, tags left out. Where a name states a change or a piece, a line headed by the entry shows the natural chain unless it says otherwise.
UniProt Q8N4P3, whole entry, looked up: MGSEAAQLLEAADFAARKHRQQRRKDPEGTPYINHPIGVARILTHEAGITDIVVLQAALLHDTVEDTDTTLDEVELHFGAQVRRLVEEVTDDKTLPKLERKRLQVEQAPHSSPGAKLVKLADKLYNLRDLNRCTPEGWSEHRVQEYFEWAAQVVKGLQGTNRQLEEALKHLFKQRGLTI
UniProt A4D1E9: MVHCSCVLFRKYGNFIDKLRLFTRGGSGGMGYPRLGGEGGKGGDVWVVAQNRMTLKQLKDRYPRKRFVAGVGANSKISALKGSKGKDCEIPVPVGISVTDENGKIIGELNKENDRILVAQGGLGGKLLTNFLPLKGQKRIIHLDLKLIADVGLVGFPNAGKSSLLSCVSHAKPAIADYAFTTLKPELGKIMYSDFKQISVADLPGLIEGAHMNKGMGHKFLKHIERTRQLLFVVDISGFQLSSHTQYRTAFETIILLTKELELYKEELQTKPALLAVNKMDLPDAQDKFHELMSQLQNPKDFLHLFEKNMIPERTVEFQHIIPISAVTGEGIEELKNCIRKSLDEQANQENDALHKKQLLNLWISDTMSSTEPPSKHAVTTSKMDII
UniProt Q12789: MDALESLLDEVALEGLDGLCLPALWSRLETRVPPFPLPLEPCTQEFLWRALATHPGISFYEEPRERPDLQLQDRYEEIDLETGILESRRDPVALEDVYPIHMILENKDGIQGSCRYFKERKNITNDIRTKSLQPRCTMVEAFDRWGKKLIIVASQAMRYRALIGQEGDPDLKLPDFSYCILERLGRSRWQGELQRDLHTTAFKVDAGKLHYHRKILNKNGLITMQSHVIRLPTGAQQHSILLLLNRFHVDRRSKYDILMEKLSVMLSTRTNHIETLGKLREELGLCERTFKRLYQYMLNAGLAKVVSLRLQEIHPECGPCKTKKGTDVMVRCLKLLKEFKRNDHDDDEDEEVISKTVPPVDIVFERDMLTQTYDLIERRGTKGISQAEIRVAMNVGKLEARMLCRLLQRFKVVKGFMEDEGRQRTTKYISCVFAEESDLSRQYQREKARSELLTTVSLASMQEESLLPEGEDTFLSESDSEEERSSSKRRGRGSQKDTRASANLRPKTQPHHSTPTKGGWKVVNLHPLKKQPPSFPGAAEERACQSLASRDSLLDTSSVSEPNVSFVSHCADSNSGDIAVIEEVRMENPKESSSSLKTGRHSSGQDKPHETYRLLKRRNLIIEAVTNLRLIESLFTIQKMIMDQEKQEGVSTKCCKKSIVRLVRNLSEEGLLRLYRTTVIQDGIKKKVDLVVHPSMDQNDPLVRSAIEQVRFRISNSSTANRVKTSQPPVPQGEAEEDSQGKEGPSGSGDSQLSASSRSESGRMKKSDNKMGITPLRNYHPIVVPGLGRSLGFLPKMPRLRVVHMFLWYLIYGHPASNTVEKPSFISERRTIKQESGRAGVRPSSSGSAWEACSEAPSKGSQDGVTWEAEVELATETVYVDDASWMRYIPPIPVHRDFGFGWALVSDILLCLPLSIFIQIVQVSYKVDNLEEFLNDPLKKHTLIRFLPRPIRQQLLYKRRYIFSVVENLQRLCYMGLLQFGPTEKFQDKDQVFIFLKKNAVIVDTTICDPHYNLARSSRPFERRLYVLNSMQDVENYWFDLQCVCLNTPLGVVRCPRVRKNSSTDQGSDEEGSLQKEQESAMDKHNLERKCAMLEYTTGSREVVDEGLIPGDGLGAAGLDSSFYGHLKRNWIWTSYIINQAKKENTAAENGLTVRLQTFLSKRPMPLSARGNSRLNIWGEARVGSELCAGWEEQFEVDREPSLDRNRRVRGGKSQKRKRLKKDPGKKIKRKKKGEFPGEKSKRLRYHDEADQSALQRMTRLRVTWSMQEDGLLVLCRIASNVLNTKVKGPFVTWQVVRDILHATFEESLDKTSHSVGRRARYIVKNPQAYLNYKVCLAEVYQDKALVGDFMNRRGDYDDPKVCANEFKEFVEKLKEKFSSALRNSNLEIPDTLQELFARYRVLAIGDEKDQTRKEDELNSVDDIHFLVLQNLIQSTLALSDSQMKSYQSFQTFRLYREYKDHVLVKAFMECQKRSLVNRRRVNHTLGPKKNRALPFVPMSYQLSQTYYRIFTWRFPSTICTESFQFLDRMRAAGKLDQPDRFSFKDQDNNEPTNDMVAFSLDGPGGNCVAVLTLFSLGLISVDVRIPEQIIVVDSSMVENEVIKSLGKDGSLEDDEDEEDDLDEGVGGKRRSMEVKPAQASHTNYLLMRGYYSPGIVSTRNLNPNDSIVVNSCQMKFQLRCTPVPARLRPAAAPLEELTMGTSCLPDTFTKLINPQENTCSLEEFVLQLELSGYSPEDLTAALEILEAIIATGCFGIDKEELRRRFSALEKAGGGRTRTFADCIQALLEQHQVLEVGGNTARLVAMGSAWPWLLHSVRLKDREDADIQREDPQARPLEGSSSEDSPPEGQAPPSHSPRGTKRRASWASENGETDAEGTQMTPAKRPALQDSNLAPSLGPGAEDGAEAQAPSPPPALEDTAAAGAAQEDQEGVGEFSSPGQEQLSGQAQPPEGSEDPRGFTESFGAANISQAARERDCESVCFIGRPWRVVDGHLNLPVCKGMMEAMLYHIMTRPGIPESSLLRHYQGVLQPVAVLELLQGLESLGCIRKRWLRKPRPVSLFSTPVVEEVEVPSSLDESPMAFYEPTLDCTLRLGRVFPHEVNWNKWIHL
UniProt Q7Z4Q2: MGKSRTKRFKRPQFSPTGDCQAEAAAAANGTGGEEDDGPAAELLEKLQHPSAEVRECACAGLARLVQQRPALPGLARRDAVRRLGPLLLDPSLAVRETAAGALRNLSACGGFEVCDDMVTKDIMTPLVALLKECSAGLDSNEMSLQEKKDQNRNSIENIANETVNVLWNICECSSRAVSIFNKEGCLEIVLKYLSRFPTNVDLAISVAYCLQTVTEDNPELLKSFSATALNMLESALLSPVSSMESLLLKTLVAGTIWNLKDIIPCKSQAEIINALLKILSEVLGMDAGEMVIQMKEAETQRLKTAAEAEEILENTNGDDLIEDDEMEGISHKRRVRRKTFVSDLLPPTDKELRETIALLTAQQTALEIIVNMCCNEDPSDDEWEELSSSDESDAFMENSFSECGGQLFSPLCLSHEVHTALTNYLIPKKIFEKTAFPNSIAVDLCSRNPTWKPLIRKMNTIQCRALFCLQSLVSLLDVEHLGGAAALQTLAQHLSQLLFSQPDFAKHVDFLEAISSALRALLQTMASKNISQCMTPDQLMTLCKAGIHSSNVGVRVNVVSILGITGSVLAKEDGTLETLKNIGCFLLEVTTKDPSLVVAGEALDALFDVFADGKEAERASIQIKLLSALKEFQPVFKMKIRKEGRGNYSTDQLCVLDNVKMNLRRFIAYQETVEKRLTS
UniProt Q9NVX0: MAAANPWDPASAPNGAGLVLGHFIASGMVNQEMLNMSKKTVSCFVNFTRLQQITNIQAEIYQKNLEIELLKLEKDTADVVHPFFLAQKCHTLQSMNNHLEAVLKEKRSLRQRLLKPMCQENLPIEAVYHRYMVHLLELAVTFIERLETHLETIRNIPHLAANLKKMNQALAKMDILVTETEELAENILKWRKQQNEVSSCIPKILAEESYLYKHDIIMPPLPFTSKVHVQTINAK
UniProt P78417: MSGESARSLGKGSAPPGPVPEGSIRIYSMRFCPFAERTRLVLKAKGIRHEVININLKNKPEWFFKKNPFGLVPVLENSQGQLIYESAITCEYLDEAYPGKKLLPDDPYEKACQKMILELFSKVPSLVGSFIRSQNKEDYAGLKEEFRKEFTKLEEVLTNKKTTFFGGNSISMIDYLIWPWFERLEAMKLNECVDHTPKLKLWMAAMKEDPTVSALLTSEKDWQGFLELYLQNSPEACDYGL
UniProt P15170, whole entry, looked up: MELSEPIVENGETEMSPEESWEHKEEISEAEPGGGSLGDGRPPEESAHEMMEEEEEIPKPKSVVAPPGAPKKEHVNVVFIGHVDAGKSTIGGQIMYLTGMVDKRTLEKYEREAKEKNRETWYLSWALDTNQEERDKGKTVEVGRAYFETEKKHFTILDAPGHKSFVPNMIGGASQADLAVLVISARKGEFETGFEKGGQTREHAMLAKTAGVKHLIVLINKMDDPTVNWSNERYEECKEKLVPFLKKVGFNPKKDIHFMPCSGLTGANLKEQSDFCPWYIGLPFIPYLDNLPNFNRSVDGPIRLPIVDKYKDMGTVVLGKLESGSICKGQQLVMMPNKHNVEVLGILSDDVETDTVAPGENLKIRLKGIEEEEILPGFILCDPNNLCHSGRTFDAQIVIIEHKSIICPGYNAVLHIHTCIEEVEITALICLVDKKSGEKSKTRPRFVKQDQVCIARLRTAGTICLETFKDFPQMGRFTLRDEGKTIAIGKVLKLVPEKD
UniProt P51610: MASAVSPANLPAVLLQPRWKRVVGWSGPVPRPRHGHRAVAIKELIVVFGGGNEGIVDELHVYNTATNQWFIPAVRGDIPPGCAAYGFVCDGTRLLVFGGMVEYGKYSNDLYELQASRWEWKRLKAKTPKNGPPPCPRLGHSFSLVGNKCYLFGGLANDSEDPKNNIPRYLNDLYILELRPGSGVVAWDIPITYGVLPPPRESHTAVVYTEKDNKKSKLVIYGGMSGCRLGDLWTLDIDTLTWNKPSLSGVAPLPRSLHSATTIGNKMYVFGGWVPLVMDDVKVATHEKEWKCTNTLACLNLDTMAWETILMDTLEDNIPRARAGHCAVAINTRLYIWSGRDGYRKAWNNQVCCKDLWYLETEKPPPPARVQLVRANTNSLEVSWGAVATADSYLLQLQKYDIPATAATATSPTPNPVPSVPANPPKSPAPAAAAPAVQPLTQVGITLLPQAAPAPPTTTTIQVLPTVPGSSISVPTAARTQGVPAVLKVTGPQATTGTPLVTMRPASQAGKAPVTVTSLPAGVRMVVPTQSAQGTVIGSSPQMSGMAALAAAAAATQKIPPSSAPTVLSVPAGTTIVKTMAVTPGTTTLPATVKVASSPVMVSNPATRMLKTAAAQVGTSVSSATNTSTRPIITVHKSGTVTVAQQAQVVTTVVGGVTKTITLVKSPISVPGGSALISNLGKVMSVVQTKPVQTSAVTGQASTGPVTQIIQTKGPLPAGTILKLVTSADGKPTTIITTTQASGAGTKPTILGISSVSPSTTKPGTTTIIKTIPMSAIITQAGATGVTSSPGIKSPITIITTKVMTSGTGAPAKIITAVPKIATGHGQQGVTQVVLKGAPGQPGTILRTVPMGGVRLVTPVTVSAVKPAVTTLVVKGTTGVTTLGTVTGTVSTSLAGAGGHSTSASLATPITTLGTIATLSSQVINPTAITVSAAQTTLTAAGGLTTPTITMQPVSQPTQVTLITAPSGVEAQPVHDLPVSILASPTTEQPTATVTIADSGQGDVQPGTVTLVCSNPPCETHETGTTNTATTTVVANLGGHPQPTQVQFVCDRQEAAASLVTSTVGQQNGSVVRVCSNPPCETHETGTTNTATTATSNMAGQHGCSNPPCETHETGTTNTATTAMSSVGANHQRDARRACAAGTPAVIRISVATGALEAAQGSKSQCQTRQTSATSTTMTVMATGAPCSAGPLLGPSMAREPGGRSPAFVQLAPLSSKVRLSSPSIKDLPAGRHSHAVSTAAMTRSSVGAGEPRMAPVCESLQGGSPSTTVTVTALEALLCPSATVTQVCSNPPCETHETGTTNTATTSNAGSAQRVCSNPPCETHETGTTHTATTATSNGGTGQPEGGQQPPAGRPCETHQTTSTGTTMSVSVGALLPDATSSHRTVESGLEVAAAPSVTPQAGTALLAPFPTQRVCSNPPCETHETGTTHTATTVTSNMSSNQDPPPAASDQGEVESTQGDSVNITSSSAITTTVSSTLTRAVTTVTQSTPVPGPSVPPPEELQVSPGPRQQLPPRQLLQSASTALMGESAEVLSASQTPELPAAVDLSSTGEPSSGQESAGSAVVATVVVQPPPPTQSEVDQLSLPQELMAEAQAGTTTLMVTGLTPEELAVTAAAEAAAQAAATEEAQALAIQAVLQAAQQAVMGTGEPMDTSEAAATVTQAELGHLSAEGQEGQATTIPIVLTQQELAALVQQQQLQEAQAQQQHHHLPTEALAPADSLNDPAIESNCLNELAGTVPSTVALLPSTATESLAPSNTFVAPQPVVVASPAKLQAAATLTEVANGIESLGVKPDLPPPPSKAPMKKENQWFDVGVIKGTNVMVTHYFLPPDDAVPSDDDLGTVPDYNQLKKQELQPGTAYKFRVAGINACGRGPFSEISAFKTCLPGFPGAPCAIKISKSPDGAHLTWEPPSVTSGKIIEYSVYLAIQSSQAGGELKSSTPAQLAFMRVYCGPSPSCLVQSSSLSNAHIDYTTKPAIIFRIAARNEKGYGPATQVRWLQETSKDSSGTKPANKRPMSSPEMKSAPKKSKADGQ
UniProt P10412, whole entry, looked up: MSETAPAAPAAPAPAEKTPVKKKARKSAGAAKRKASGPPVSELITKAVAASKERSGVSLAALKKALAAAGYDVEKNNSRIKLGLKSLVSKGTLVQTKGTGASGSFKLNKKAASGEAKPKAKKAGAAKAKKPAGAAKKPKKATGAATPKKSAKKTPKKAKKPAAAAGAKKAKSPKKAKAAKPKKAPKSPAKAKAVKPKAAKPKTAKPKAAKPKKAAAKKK

[1] = compound: C/C(=N\NC(=O)C1=CC(=CC=C1)S(=O)(=O)N2CCOCC2)/C3=C(C=CC(=C3)Cl)O
Method in brief: as §1

[2] = compound: C1=CC(=CC=C1C2=NC3=C(N2)C=C(C=C3)C(=O)N)OC4=CC=C(C=C4)Cl
Method in brief: as §1

[3] = compound: C1=CC2=C(C=CC(=C2)/C=C\3/C(=O)NC(=NCC4=CC=CS4)S3)N=C1
Method in brief: as §1

[4] = compound: C1=CC2=NC=CN=C2C=C1/C=C/3\C(=O)NC(=O)S3
Method in brief: as §1

[5] = compound: C1=CC=C(C=C1)C2=NC(=C(N2)C3=CC=NC=C3)C4=CC(=C(C=C4)Cl)O
Method in brief: as §1

[6] = compound: C1=CC=C2C(=C1)C3=NNC4=CC=CC(=C43)C2=O
Method in brief: as §1

[7] = compound: C1CCN(C1)C(=O)NC2=CC=CC(=C2)NC3=NC=C(C(=N3)NCCC4=CN=CN4)Br
Method in brief: as §1

[8] = compound: C1CN(CCC1(CC2=CC=C(C=C2)Cl)N)C3=NC=NC4=C3C=CN4
Method in brief: as §1

IRAK-1-4 Inhibitor I = compound: C1COCCN1CCN2C3=CC=CC=C3N=C2NC(=O)C4=CC(=CC=C4)[N+](=O)[O-] [IRAK-1-4 Inhibitor I]
Method in brief: as §1

ibrutinib = compound: C=CC(=O)N1CCC[C@@H](n2nc(-c3ccc(Oc4ccccc4)cc3)c3c(N)ncnc32)C1 [ibrutinib]
Method in brief: as §1

[9] = compound: CC(=O)c1cnc2ccc(-c3cc(Cl)c(O)c(Cl)c3)nc2c1N[C@H]1CC[C@H](CN(C)C)CC1
Method in brief: as §1

ralimetinib = compound: CC(C)(C)Cn1c(N)nc2ccc(-c3[nH]c(C(C)(C)C)nc3-c3ccc(F)cc3)nc21 [ralimetinib]
Method in brief: as §1

[10] = compound: CC(C)(O)CC(=O)NCCn1ccc2ncnc(Nc3ccc(Oc4cccc(C(F)(F)F)c4)c(Cl)c3)c21
Method in brief: as §1

[11] = compound: CC(C)C1=C2N=C(C=C(N2N=C1)NCC3=CC=CC=C3)NCCCCCCN
Method in brief: as §1

[12] = compound: CC1=C(C(CC(=O)N1)C2=CC=C(C=C2)C(F)(F)F)C(=O)NC3=C(C=C4C(=C3)C=NN4)F
Method in brief: as §1

[13] = compound: CC1=C(C2=C(C=C1)C(=O)C3=CC=CC=C3N2CCCN)C
Method in brief: as §1

[14] = compound: CC1=C(C=C(C=C1)NC(=O)C2=CC(=CC=C2)C(C)(C)C#N)NC3=CC4=C(C=C3)N=CN(C4=O)C
Method in brief: as §1

[15] = compound: CC1=C(C=C(C=C1)NC(=O)C2=CC(=CC=C2)N(C)C)NC(=O)C3=CC=C(C=C3)O
Method in brief: as §1

[16] = compound: CC1=CC=C(C=C1)SC2=C3C=C(SC3=CN=C2)C(=O)N
Method in brief: as §1

Measured: log2 fold change

HDDC3 (UniProt Q8N4P3)
inactive: erlotinib -0.041 | [1] 0.002 | [2] 0.006 | [3] 0.003 | [4] -0.024 | [5] -0.049 | [6] -0.032 | [7] -0.009 | [8] -0.039 | IRAK-1-4 Inhibitor I -0.044 | ibrutinib 0.068 | [9] 0.057 | ralimetinib 0.072 | [10] 0.028 | [11] -0.005 | [12] 0.008 | [13] 0.01 | [14] -0.045 | [15] 0.011 | [16] 0.018

GTPBP10 (UniProt A4D1E9)
inactive: erlotinib 0.053 | [1] -0.494 | [2] -0.002 | [3] 0.003 | [4] 0.066 | [5] -0.006 | [6] -0.091 | [7] -0.089 | [8] 0.045 | IRAK-1-4 Inhibitor I -0.005 | ibrutinib -0.076 | [9] 0.049 | ralimetinib -0.004 | [10] 0.03 | [11] 0.023 | [12] 0.077 | [13] -0.028 | [14] 0.041 | [15] 0.065 | [16] 0.073

GTF3C1 (UniProt Q12789)
inactive: erlotinib -0.003 | [1] 0.014 | [2] -0.013 | [3] -0.037 | [4] 0.002 | [5] -0.016 | [6] -0.052 | [7] -0.032 | [8] 0.014 | IRAK-1-4 Inhibitor I -0.004 | ibrutinib -0.036 | [9] 0.014 | ralimetinib 0.045 | [10] 0.009 | [11] -0.019 | [12] -0.009 | [13] -0.025 | [14] 0.034 | [15] 0.04 | [16] -0.005

HEATR3 (UniProt Q7Z4Q2)
inactive: erlotinib 0.002 | [1] 0.029 | [2] -0.064 | [3] -0.015 | [4] 0.02 | [5] -0.022 | [6] -0.052 | [7] -0.002 | [8] 0.006 | IRAK-1-4 Inhibitor I -0.001 | ibrutinib 0.026 | [9] -0.008 | ralimetinib 0.037 | [10] -0.048 | [11] -0.01 | [12] -0.001 | [13] -0.015 | [14] 0.004 | [15] -0.027 | [16] 0.023

HDGFL3 (UniProt Q9Y3E1)
inactive: erlotinib 0.062 | [1] -0.039 | [2] 0.027 | [3] -0.021 | [4] -0.013 | [5] -0.032 | [6] -0.002 | [7] 0.04 | [8] 0.023 | IRAK-1-4 Inhibitor I 0.03 | ibrutinib -0.006 | [9] -0.036 | ralimetinib -0.043 | [10] -0.064 | [11] 0.03 | [12] -0.052 | [13] -0.015 | [14] 0.022 | [15] 0.04 | [16] -0.014

HAUS2 (UniProt Q9NVX0)
inactive: erlotinib 0 | [1] 0.045 | [2] -0.12 | [3] 0.116 | [4] -0.02 | [5] 0.03 | [6] 0.031 | [7] -0.015 | [8] 0.026 | IRAK-1-4 Inhibitor I 0.003 | ibrutinib 0.145 | [9] 0.1 | ralimetinib 0.054 | [10] 0.058 | [11] 0.003 | [12] 0.026 | [13] -0.079 | [14] -0.017 | [15] 0.023 | [16] -0.021

GTF2H4 (UniProt Q92759)
inactive: erlotinib -0.013 | [1] -0.049 | [2] -0.013 | [3] 0.037 | [4] -0.059 | [5] -0.001 | [6] 0.141 | [7] 0.056 | [8] -0.004 | IRAK-1-4 Inhibitor I -0.044 | ibrutinib 0.039 | [9] 0.003 | ralimetinib 0.058 | [10] -0.006 | [11] 0.021 | [12] 0.054 | [13] -0.014 | [14] -0.015 | [15] 0.052 | [16] 0.037

GSTO1 (UniProt P78417)
inactive: erlotinib -0.013 | [1] -0.039 | [2] -0.004 | [3] -0.031 | [4] -0.004 | [5] 0.011 | [6] 0.053 | [7] 0.035 | [8] -0.014 | IRAK-1-4 Inhibitor I -0.019 | ibrutinib -0.036 | [9] 0.035 | ralimetinib -0.007 | [10] 0.031 | [11] -0.009 | [12] -0.02 | [13] 0.015 | [14] -0.019 | [15] -0.003 | [16] 0.018

GSPT1 isoform 3 (UniProt P15170)
inactive: erlotinib 0.007 | [1] 0.033 | [2] 0 | [3] -0.012 | [4] -0.01 | [5] 0.02 | [6] 0.015 | [7] 0.022 | [8] -0.004 | IRAK-1-4 Inhibitor I 0.015 | ibrutinib 0.01 | [9] -0.01 | ralimetinib -0.026 | [10] 0.012 | [11] 0.015 | [12] -0.026 | [13] -0.008 | [14] -0.019 | [15] -0.02 | [16] 0

GTF3C4 (UniProt Q9UKN8)
inactive: erlotinib -0.007 | [1] -0.069 | [2] 0.023 | [3] 0.001 | [4] 0.007 | [5] -0.006 | [6] -0.002 | [7] -0.013 | [8] 0.003 | IRAK-1-4 Inhibitor I 0.002 | ibrutinib 0.007 | [9] -0.017 | ralimetinib 0.017 | [10] -0.017 | [11] 0.009 | [12] -0.001 | [13] 0.018 | [14] -0.016 | [15] 0.003 | [16] -0.007

GTSE1 (UniProt Q9NYZ3)
inactive: erlotinib 0.015 | [1] -0.003 | [2] 0.057 | [3] 0.042 | [4] -0.015 | [5] 0.025 | [6] -0.04 | [7] 0.149 | [8] -0.044 | IRAK-1-4 Inhibitor I -0.078 | ibrutinib 0.051 | [9] 0.035 | ralimetinib 0.023 | [10] 0.022 | [11] -0.016 | [12] 0.006 | [13] 0.012 | [14] 0.019 | [15] -0.014 | [16] -0.028

HCFC1 isoform 4 (UniProt P51610)
inactive: erlotinib 0.003 | [1] -0.028 | [2] 0.038 | [3] -0.001 | [4] -0.017 | [5] -0.005 | [6] 0.037 | [7] -0.006 | [8] 0.004 | IRAK-1-4 Inhibitor I 0.02 | ibrutinib 0.009 | [9] -0.005 | ralimetinib 0.006 | [10] -0.015 | [11] 0.007 | [12] 0.001 | [13] -0.007 | [14] 0.008 | [15] 0.006 | [16] -0.021

HEATR5A (UniProt Q86XA9)
inactive: erlotinib 0.219 | [1] 0.375 | [2] -0.002 | [3] -0.062 | [4] -0.017 | [5] -0.003 | [6] -0.01 | [7] -0.004 | [8] 0.035 | IRAK-1-4 Inhibitor I 0.001 | ibrutinib -0.04 | [9] -0.008 | ralimetinib 0.018 | [10] -0.027 | [11] -0.038 | [12] -0.017 | [13] -0.009 | [14] 0.011 | [15] -0.012 | [16] -0.005

Copied from the entries so far (four entries):
GSPT1 isoform 3 (UniProt P15170)
inactive: erlotinib 0.007 | [1] 0.033 | [2] 0 | [3] -0.012 | [4] -0.01 | [5] 0.02 | [6] 0.015 | [7] 0.022 | [8] -0.004 | IRAK-1-4 Inhibitor I 0.015 | ibrutinib 0.01 | [9] -0.01 | ralimetinib -0.026 | [10] 0.012 | [11] 0.015 | [12] -0.026 | [13] -0.008 | [14] -0.019 | [15] -0.02 | [16] 0

GTF3C4 (UniProt Q9UKN8)
inactive: erlotinib -0.007 | [1] -0.069 | [2] 0.023 | [3] 0.001 | [4] 0.007 | [5] -0.006 | [6] -0.002 | [7] -0.013 | [8] 0.003 | IRAK-1-4 Inhibitor I 0.002 | ibrutinib 0.007 | [9] -0.017 | ralimetinib 0.017 | [10] -0.017 | [11] 0.009 | [12] -0.001 | [13] 0.018 | [14] -0.016 | [15] 0.003 | [16] -0.007

GTSE1 (UniProt Q9NYZ3)
inactive: erlotinib 0.015 | [1] -0.003 | [2] 0.057 | [3] 0.042 | [4] -0.015 | [5] 0.025 | [6] -0.04 | [7] 0.149 | [8] -0.044 | IRAK-1-4 Inhibitor I -0.078 | ibrutinib 0.051 | [9] 0.035 | ralimetinib 0.023 | [10] 0.022 | [11] -0.016 | [12] 0.006 | [13] 0.012 | [14] 0.019 | [15] -0.014 | [16] -0.028

HCFC1 isoform 4 (UniProt P51610)
inactive: erlotinib 0.003 | [1] -0.028 | [2] 0.038 | [3] -0.001 | [4] -0.017 | [5] -0.005 | [6] 0.037 | [7] -0.006 | [8] 0.004 | IRAK-1-4 Inhibitor I 0.02 | ibrutinib 0.009 | [9] -0.005 | ralimetinib 0.006 | [10] -0.015 | [11] 0.007 | [12] 0.001 | [13] -0.007 | [14] 0.008 | [15] 0.006 | [16] -0.021

Remaining list, next part:

H1-4 (UniProt P10412)
inactive: erlotinib 0.005 | [1] -0.043 | [2] -0.022 | [3] -0.01 | [4] -0.012 | [5] 0.026 | [6] 0.036 | [7] -0.007 | [8] -0.004 | IRAK-1-4 Inhibitor I 0.02 | ibrutinib 0.017 | [9] -0.028 | ralimetinib -0.017 | [10] -0.032 | [11] 0.028 | [12] 0.01 | [13] 0.146 | [14] 0.029 | [15] -0.002 | [16] -0.057

GTF2H2 (UniProt Q13888)
inactive: erlotinib 0.09 | [1] 0.049 | [2] 0.013 | [3] -0.009 | [4] -0.007 | [5] 0.087 | [6] 0.008 | [7] 0.015 | [8] 0.037 | IRAK-1-4 Inhibitor I 0.028 | ibrutinib 0.007 | [9] 0.028 | ralimetinib -0.003 | [10] -0.042 | [11] 0.031 | [12] -0.021 | [13] -0.009 | [14] 0.045 | [15] 0.007 | [16] -0.014

HAGH (UniProt Q16775)
inactive: erlotinib 0.004 | [1] -0.064 | [2] 0.019 | [3] -0.019 | [4] 0.022 | [5] 0.004 | [6] -0.033 | [7] -0.018 | [8] 0.017 | IRAK-1-4 Inhibitor I 0.016 | ibrutinib 0.049 | [9] -0.013 | ralimetinib 0.005 | [10] -0.03 | [11] -0.051 | [12] 0.024 | [13] -0.048 | [14] 0.039 | [15] -0.038 | [16] 0.019
